Holding throughout (experiment): log2 fold change, soluble protein after heating vs DMSO (PISA); higher = thermal stabilisation; K562 lysate, 10 uM; active = over 0.2 and 3.5 SD of the protein, either way, in both replicates (recomputed)
Compound in experiment [1]: C1=CC=C(C=C1)[C@H](COC2=CC3=C(C=C2)NC(=O)N3)NC(=O)C4=CC=CN(C4=O)CC5=CC(=C(C=C5)F)F
In short, it runs like this: (§1)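 Pellets of K562 cells were dounce-homogenised in PBS pH 7.4 with 1 mM MgCl2, and the crude extract was held at 1 mg/mL protein for a 30 min treatment with 10 μM compound. Aliquots were heated for 3 min over 48°C-58°C and pooled before NP-40 was added to 0.5% at 4°C. The supernatant from 21,000xg for 90 min was quantified by TMTpro 16plex LC-MS/MS with channel sums equalised. Values are reported from duplicates as log-two fold change in thermal stability relative to solvent controls.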

The chains behind the UniProt entries cited, without tags or fusion partners. Where a name states a change or a piece, a line headed by the entry shows the natural chain unless it says otherwise.
UniProt P62942, whole entry, looked up: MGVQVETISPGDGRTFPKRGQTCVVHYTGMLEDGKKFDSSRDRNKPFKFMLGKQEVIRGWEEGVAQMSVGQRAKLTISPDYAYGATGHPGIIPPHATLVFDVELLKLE
UniProt Q96ME1: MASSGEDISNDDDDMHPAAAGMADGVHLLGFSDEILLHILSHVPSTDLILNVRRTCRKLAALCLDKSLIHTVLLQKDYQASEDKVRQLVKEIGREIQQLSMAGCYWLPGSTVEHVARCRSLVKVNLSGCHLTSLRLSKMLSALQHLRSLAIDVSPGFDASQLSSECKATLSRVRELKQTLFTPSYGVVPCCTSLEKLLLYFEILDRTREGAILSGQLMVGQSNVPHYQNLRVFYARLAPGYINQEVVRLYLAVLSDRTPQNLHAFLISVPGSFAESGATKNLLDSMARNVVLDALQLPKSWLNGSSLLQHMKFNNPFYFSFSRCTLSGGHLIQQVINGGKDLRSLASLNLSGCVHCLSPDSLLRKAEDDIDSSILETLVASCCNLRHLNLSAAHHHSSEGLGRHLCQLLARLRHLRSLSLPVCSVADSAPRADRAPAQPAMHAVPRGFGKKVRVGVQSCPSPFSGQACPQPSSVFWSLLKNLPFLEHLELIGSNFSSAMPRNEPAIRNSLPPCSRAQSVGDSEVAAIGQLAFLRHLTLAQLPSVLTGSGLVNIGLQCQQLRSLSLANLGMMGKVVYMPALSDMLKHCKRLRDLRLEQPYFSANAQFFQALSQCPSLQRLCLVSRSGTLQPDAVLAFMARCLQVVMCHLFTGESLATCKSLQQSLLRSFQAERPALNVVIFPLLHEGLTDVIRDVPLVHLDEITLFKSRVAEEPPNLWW
UniProt Q9Y5Y0: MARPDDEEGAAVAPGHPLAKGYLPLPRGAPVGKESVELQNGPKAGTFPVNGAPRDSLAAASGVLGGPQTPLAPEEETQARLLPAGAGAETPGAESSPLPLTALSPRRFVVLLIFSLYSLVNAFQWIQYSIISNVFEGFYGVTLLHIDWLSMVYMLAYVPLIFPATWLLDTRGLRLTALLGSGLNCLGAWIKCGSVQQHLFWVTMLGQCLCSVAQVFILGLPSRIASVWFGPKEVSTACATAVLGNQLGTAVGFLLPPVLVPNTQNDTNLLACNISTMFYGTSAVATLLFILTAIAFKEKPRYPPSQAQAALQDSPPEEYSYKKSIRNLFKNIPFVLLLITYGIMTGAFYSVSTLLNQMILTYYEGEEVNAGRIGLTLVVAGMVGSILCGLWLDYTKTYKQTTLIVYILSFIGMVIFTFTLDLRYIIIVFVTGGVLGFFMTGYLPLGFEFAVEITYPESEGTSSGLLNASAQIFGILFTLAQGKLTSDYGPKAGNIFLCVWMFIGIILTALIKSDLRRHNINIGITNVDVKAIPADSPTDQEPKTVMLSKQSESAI
UniProt Q9UK97: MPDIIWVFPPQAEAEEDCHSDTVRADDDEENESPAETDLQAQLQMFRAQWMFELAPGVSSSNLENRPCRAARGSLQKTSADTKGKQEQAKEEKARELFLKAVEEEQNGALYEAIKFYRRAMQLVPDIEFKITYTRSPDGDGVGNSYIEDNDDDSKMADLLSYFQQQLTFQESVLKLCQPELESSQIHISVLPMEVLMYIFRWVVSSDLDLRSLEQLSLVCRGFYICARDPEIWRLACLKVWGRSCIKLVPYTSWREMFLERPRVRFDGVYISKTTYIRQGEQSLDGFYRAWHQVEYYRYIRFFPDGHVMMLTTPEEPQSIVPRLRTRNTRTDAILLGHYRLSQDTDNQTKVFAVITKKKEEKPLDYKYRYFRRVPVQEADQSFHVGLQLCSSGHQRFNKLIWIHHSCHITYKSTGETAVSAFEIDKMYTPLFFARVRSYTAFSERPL
UniProt Q86WN1: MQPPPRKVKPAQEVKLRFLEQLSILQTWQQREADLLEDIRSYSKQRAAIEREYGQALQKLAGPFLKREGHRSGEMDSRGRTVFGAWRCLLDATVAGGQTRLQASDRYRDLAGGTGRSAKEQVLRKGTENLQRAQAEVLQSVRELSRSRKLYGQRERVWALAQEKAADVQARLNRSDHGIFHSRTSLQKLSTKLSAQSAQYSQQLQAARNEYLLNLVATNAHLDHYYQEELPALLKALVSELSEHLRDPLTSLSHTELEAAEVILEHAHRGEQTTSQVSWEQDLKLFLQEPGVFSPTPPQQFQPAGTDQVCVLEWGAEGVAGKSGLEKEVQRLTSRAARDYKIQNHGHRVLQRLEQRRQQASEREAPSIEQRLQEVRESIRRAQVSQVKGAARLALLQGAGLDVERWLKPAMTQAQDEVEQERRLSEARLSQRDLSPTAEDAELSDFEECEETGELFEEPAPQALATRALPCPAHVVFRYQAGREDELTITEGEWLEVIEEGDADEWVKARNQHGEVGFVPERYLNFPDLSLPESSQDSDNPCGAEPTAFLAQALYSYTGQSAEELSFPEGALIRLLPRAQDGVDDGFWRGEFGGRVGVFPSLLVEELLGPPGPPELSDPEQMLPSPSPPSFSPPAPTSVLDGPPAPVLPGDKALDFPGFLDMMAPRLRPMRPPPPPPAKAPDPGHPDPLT
UniProt P37268: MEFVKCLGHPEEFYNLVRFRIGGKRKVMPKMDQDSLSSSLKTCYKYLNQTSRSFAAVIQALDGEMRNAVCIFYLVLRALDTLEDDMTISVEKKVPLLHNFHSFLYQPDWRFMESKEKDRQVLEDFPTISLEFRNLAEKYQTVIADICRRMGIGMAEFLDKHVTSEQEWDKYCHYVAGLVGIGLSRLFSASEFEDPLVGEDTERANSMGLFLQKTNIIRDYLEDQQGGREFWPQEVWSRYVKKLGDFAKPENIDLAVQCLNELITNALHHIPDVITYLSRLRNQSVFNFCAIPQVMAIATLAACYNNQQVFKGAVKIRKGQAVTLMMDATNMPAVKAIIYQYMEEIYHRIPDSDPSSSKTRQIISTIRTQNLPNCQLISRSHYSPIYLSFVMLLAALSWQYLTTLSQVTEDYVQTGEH
UniProt Q9UKT4: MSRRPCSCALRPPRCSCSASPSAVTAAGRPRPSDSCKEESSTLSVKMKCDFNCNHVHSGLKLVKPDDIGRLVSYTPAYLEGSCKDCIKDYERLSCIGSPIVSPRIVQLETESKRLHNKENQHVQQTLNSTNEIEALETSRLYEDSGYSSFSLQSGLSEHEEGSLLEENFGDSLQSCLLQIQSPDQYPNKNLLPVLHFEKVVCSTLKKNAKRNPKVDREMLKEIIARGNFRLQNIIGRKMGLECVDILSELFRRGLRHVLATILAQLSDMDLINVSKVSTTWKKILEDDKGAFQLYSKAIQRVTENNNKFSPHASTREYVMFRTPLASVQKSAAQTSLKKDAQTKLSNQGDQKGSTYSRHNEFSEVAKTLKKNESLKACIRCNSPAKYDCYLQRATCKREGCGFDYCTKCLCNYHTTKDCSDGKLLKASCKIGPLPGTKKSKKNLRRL
UniProt Q8TF40: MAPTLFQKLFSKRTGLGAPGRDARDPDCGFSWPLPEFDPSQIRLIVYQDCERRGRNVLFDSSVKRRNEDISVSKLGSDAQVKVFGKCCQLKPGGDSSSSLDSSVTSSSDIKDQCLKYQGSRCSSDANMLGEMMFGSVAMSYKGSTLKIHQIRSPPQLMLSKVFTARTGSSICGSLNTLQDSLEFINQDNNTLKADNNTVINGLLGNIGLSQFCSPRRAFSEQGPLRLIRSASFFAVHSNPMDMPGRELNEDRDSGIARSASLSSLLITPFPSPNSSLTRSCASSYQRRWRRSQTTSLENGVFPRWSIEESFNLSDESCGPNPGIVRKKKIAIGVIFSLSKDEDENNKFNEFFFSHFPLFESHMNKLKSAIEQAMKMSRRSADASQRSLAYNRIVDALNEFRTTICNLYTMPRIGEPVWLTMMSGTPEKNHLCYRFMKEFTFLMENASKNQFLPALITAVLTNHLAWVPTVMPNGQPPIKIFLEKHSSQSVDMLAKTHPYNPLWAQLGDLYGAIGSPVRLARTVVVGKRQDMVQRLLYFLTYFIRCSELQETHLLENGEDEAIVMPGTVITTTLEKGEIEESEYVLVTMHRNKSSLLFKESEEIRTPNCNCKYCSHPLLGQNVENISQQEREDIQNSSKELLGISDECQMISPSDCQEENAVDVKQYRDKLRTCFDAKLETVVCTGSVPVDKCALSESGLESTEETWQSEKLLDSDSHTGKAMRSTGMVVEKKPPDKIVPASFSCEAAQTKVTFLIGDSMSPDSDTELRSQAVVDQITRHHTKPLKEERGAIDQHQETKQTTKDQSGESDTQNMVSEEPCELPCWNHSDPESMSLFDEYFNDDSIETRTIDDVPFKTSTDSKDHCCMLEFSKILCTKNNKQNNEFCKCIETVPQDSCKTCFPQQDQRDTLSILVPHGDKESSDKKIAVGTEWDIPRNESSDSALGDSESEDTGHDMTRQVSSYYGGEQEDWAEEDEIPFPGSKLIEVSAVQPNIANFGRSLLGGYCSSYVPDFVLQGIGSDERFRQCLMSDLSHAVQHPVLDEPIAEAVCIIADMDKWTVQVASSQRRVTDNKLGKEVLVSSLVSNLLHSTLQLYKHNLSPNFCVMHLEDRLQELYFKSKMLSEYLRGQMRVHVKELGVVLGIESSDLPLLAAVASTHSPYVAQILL
UniProt Q7L8L6: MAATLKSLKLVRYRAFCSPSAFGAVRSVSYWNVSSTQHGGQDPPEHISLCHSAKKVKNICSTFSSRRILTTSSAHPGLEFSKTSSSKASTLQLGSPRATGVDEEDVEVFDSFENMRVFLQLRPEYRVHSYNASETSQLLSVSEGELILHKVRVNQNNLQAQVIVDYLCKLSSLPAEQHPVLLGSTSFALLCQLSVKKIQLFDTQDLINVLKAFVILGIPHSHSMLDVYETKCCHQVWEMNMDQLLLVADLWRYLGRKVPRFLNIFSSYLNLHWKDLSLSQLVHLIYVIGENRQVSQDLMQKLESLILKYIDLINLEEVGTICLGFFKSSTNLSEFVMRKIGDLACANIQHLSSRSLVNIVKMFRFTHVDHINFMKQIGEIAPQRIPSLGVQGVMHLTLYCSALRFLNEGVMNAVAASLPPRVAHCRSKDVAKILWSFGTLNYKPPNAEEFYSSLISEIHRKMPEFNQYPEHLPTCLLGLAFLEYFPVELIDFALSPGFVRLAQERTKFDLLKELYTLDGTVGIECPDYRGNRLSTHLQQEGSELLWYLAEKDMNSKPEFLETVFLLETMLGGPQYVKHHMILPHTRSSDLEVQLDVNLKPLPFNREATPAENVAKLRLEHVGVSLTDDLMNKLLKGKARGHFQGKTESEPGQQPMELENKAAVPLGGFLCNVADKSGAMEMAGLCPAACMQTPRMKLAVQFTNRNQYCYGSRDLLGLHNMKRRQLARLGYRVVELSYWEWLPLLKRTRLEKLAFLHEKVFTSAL
UniProt Q9UIM3: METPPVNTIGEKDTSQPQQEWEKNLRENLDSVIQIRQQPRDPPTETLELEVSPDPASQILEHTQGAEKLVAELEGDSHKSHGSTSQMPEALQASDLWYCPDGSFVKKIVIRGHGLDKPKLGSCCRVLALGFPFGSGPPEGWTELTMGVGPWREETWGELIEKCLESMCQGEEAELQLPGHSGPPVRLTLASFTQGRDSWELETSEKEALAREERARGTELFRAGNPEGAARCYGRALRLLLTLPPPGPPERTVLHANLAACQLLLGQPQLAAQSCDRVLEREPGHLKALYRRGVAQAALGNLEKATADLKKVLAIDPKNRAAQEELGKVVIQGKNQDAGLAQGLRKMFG
UniProt Q5XUX1: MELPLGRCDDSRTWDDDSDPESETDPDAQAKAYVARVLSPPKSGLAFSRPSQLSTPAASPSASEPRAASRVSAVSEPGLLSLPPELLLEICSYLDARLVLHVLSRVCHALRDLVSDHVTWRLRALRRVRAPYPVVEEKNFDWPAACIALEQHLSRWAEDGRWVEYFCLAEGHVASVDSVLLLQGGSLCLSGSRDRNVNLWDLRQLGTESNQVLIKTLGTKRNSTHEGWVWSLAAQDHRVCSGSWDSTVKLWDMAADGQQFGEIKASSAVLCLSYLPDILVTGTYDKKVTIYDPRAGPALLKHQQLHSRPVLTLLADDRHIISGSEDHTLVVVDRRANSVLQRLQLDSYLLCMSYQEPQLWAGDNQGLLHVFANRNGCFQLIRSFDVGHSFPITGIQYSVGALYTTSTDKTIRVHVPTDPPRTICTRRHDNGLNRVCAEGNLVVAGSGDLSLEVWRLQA
UniProt Q9H4M3: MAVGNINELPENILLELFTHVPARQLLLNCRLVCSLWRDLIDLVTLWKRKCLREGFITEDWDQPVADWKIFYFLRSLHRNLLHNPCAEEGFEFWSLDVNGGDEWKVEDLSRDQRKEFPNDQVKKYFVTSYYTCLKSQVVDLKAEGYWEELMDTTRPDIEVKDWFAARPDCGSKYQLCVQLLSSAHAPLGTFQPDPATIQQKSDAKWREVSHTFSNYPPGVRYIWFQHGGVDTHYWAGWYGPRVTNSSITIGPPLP
UniProt Q9NWM8: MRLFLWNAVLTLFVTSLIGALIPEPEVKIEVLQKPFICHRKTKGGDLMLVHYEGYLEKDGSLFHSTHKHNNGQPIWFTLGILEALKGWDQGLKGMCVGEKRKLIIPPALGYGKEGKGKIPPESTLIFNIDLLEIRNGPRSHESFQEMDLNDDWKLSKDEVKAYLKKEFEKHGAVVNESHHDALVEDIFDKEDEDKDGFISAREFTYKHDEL

Compound in experiment [2]: CC1=C(SC2=C1C(=N[C@H](C3=NN=C(N32)C)CC(=O)N)C4=CC=C(C=C4)Cl)C
In short, it runs like this:
as §1

Compound in experiment [3]: CC1=C2C(=CC=C1)N=C(N(C2=O)C3=CC=CC=C3C)CN4C=NC5=C(N=CN=C54)N
In short, it runs like this: as §1

Compound in experiment [4]: Cc1sc2c(c1C)C(c1ccc(Cl)cc1)=N[C@@H](CC(=O)OC(C)(C)C)c1nnc(C)n1-2
In short, it runs like this:
as §1

Compound in experiment [5]: c1ccc([C@@H]2C[C@H]2NC2CCNCC2)cc1
In outline:
as §1

This is one part of the list.

On to FMNL3 (UniProt Q8IVF7), for which the log2 fold change in experiment [1] was inactive: -0.052; in experiment [2], inactive: -0.061.

For the target FDX2 (UniProt Q6P4F2), the log2 fold change is inactive: -0.039 in experiment [1]; inactive: 0.021 in experiment [2]; inactive: -0.012 in experiment [3]; inactive: 0.062 in experiment [4]; inactive: -0.05 in experiment [5].

Consider FKBP1A (UniProt P62942), for which the log2 fold change in experiment [1] is inactive: 0.011; in experiment [2], inactive: -0.134; in experiment [3], inactive: -0.069; in experiment [4] it was inactive: -0.01; in experiment [5], inactive: -0.214.

Consider FBXL18 isoform 4 (UniProt Q96ME1), for which the log2 fold change is inactive: 0.037 in experiment [1]; inactive: -0.014 in experiment [2]; inactive: -0.014 in experiment [3]; inactive: -0.014 in experiment [4]; inactive: 0.005 in experiment [5].

On to FLT4 (UniProt P35916), for which the log2 fold change in experiment [1] was inactive: 0.006; in experiment [2] it was inactive: -0.04; in experiment [3], inactive: -0.031; in experiment [4], inactive: 0.098; in experiment [5], inactive: -0.408.

As to FLVCR1 (UniProt Q9Y5Y0), the log2 fold change in experiment [1] was inactive: -0.076; in experiment [2], inactive: -0.026; in experiment [3], inactive: -0.07; in experiment [4], inactive: 0.172; in experiment [5], inactive: -0.02.

Turning to FBXO9 (UniProt Q9UK97), the log2 fold change in experiment [1] was inactive: -0.07; in experiment [2], inactive: -0.112; in experiment [3] it was inactive: -0.002; in experiment [4], inactive: 0.089; in experiment [5] it was inactive: 0.095.

With FITM2 (UniProt Q8N6M3), the log2 fold change was inactive: -0.119 in experiment [1] and inactive: 0.048 in experiment [2].

For FCHSD1 (UniProt Q86WN1), the log2 fold change in experiment [1] was inactive: 0.011; in experiment [2], inactive: 0.065; in experiment [3] it was inactive: 0.007; in experiment [4], inactive: 0.004; in experiment [5], inactive: -0.083.

As for FDFT1 (UniProt P37268), the log2 fold change in experiment [1] was inactive: -0.045; in experiment [2], active: 0.268; in experiment [3] it was inactive: 0; in experiment [4], inactive: 0.107; in experiment [5], inactive: -0.047.

In the case of FDX1 (UniProt P10109), the log2 fold change is inactive: 0.068 in experiment [1]; inactive: -0.027 in experiment [2]; inactive: 0.052 in experiment [3]; inactive: 0.117 in experiment [4]; inactive: -0.097 in experiment [5].

With FBXO5 (UniProt Q9UKT4), the log2 fold change in experiment [1] was inactive: 0.012; in experiment [2], inactive: -0.001; in experiment [3], inactive: 0.014; in experiment [4], inactive: -0.003; in experiment [5], inactive: 0.073.

For FNBP1 (UniProt Q96RU3), the log2 fold change in experiment [1] is inactive: 0.024; in experiment [2], inactive: -0.025; in experiment [3], inactive: 0.076; in experiment [4], inactive: 0.019; in experiment [5] it was inactive: 0.065.

Consider FNIP1 isoform 3 (UniProt Q8TF40), for which the log2 fold change in experiment [1] was inactive: 0.037; in experiment [2], inactive: 0.042; in experiment [3] it was inactive: 0.017; in experiment [4], inactive: 0.103; in experiment [5], inactive: 0.006.

Turning to FGGY isoform 3 (UniProt Q96C11), the log2 fold change is inactive: -0.042 in experiment [1]; inactive: -0.148 in experiment [2]; inactive: -0.016 in experiment [3]; inactive: -0.093 in experiment [4]; inactive: 0.091 in experiment [5].

As to FAM98A (UniProt Q8NCA5), the log2 fold change in experiment [1] was inactive: 0.017; in experiment [2], inactive: 0.002; in experiment [3], inactive: -0.048; in experiment [4], inactive: 0.016; in experiment [5] it was inactive: 0.02.

FASTKD5 (UniProt Q7L8L6): the log2 fold change in experiment [1] was inactive: -0.168; in experiment [2], inactive: -0.056; in experiment [3], inactive: -0.024; in experiment [4], inactive: -0.002; in experiment [5], inactive: 0.133.

Consider FKBPL (UniProt Q9UIM3), for which the log2 fold change was inactive: 0.062 in experiment [1]; inactive: 0.007 in experiment [2]; inactive: 0.024 in experiment [3]; inactive: -0.047 in experiment [4]; inactive: 0.01 in experiment [5].

In the case of FAU (UniProt E9PR30), the log2 fold change in experiment [1] is inactive: 0.001; in experiment [2] it was inactive: 0.06; in experiment [3], inactive: -0.008; in experiment [4] it was inactive: 0.018; in experiment [5] it was inactive: 0.135.

As for FANCD2 isoform 1 (UniProt Q9BXW9), the log2 fold change in experiment [1] is inactive: -0.002; in experiment [2] it was inactive: 0.039; in experiment [3], inactive: 0.012; in experiment [4], inactive: -0.018; in experiment [5], inactive: -0.054.

Take FBRSL1, A0A3B3IRR3: the log2 fold change in experiment [1] is inactive: 0.002; in experiment [2] it was inactive: 0.005; in experiment [3], inactive: -0.021; in experiment [4] it was inactive: 0.02; in experiment [5] it was inactive: -0.028.

With FBXL8 (UniProt Q96CD0), the log2 fold change in experiment [1] was inactive: 0.176; in experiment [2] it was inactive: -0.014; in experiment [3], inactive: 0.051; in experiment [4] it was inactive: -0.019; in experiment [5], inactive: -0.001.

FBXW9 (UniProt Q5XUX1): the log2 fold change is inactive: 0.05 in experiment [1]; inactive: 0.016 in experiment [2]; inactive: 0.038 in experiment [3]; inactive: -0.095 in experiment [4]; inactive: -0.04 in experiment [5].

With FBXO44 isoform 2 (UniProt Q9H4M3), the log2 fold change was inactive: 0.336 in experiment [1]; inactive: 0.064 in experiment [2]; inactive: -0.079 in experiment [3]; inactive: -0.026 in experiment [4]; inactive: -0.074 in experiment [5].

As for FKBP14 (UniProt Q9NWM8), the log2 fold change in experiment [1] is inactive: 0.068; in experiment [2], inactive: -0.058; in experiment [3] it was inactive: 0.029; in experiment [4] it was inactive: 0.015; in experiment [5], inactive: -0.046.
